Reference: article doi:10.1101/2025.08.11.669663
No constants are given. Whether binding was seen depends on the method and setting. In cells and extracts the contact can be indirect. Some entries that bind do so weakly or less than the wild type.

Amino acid sequences for entries named in this document (tags omitted).
UniProt P00441: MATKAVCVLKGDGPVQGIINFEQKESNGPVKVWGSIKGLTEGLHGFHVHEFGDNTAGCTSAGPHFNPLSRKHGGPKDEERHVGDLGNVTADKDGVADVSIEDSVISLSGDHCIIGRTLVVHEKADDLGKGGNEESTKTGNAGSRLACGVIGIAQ
UniProt P04406: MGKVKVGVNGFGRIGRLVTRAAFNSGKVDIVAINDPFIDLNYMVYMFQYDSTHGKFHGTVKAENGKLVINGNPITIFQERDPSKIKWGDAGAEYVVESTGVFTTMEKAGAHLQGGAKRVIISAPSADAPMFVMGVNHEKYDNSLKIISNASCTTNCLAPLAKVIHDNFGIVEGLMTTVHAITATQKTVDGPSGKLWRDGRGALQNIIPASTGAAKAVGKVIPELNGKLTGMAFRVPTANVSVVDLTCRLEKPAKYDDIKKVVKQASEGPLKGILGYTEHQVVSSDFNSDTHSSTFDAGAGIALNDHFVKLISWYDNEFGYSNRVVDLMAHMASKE

T1: catalase (CAT) (human (endogenous in HeLa)) (UniProt P04040)
T1 sequence: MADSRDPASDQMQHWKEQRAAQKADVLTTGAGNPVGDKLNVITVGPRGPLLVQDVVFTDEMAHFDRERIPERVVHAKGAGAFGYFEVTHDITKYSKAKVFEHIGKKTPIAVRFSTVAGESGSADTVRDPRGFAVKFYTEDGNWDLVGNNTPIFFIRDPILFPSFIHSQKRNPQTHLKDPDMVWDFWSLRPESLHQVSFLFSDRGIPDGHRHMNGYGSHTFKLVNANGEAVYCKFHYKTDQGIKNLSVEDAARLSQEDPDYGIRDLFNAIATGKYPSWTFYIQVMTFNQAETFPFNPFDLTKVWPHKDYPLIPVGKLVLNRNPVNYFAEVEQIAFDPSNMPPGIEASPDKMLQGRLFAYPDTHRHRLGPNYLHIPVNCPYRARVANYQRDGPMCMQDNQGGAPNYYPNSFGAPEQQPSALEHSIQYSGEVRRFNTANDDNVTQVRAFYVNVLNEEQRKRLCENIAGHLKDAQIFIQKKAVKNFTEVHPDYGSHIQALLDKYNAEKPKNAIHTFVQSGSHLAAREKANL

T2: catalase (CAT) (human (endogenous in HeLa)), P04040
T2 chain: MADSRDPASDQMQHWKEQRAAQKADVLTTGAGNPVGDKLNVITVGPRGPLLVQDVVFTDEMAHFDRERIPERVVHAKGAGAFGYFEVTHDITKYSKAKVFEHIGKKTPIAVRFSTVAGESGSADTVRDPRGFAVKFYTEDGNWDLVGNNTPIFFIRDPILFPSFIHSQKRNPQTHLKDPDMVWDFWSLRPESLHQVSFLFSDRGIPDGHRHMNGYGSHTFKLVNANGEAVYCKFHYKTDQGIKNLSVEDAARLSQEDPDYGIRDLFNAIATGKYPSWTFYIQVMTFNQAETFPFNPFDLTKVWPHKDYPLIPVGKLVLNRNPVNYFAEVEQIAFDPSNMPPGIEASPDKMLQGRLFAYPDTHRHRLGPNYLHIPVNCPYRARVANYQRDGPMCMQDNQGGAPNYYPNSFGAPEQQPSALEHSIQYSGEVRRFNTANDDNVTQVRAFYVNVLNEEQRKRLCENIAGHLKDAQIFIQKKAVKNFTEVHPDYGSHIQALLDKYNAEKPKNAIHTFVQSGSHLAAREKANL

T3: PRDX1 (human (endogenous in HeLa)) (UniProt Q06830)
T3 sequence: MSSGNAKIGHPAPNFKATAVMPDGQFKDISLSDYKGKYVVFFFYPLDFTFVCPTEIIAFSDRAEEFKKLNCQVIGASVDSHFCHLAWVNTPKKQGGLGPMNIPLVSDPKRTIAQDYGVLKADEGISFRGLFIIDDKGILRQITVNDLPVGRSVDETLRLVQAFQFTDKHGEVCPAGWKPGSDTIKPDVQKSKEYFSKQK

T4: peroxiredoxin 2 (PRDX2) (human (endogenous in HeLa)) (UniProt P32119)
T4 sequence: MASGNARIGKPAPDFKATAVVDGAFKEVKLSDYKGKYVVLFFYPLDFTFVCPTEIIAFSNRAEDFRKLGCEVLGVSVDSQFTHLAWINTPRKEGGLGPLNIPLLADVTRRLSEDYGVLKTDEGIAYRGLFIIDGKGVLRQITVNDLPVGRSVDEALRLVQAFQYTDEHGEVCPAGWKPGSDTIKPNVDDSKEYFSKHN


Columns and labels:
Assay in all cases: proximity ligation
[1] = biological target: Cu/Zn superoxide dismutase (SOD1) (human (endogenous in HeLa)) (UniProt P00441)
[2] = biological target: glyceraldehyde-3-phosphate dehydrogenase (GAPDH) (human (endogenous in HeLa)) (UniProt P04406)
[3] = biological target: T1, catalase (CAT) (human (endogenous in HeLa))
[4] = biological target: T2, catalase (CAT) (human (endogenous in …)); details: remark: other sources report otherwise
[5] = biological target: T3, PRDX1 (human (endogenous in HeLa))
[6] = biological target: T4, peroxiredoxin 2 (PRDX2) (human (endogenous in HeLa))

Row | Binder | binding [1] | binding [3] | other results
1 | catalase (CAT) (protein, UniProt P04040 1-527) MADSRDPASDQMQHWKEQRAAQKADVLTTGAGNPVGDKLNVITVGPRGPLLVQDVVFTDEMAHFDRERIPERVVHAKGAGAFGYFEVTHDITKYSKAKVFEHIGKKTPIAVRFSTVAGESGSADTVRDPRGFAVKFYTEDGNWDLVGNNTPIFFIRDPILFPSFIHSQKRNPQTHLKDPDMVWDFWSLRPESLHQVSFLFSDRGIPDGHRHMNGYGSHTFKLVNANGEAVYCKFHYKTDQGIKNLSVEDAARLSQEDPDYGIRDLFNAIATGKYPSWTFYIQVMTFNQAETFPFNPFDLTKVWPHKDYPLIPVGKLVLNRNPVNYFAEVEQIAFDPSNMPPGIEASPDKMLQGRLFAYPDTHRHRLGPNYLHIPVNCPYRARVANYQRDGPMCMQDNQGGAPNYYPNSFGAPEQQPSALEHSIQYSGEVRRFNTANDDNVTQVRAFYVNVLNEEQRKRLCENIAGHLKDAQIFIQKKAVKNFTEVHPDYGSHIQALLDKYNAEKPKNAIHTFVQSGSHLAAREKANL | binds | – | –
2 | TXN (protein, UniProt P10599 1-105) MVKQIESKTAFQEALDAAGDKLVVVDFSATWCGPCKMIKPFFHSLSEKYSNVIFLEVDVDDCQDVASECEVKCMPTFQFFKKGQKVGEFSGANKEKLEATINELV | – | binds | binding [2]: binds
3 | PRDX1, Q06830 1-199 (protein) MSSGNAKIGHPAPNFKATAVMPDGQFKDISLSDYKGKYVVFFFYPLDFTFVCPTEIIAFSDRAEEFKKLNCQVIGASVDSHFCHLAWVNTPKKQGGLGPMNIPLVSDPKRTIAQDYGVLKADEGISFRGLFIIDDKGILRQITVNDLPVGRSVDETLRLVQAFQFTDKHGEVCPAGWKPGSDTIKPDVQKSKEYFSKQK | – | – | binding [4]: binds
4 | PRDX6 (protein, UniProt P30041 1-224) MPGGLLLGDVAPNFEANTTVGRIRFHDFLGDSWGILFSHPRDFTPVCTTELGRAAKLAPEFAKRNVKLIALSIDSVEDHLAWSKDINAYNCEEPTEKLPFPIIDDRNRELAILLGMLDPAEKDEKGMPVTARVVFVFGPDKKLKLSILYPATTGRNFDEILRVVISLQLTAEKRVATPVDWKDGDSVMVLPTIPEEEAKKLFPKGVFTKELPSGKKYLRYTPQP | – | – | binding [5]: binds
5 | PRIM2 (a DNA primase subunit) (protein, UniProt P49643 1-509) MEFSGRKWRKLRLAGDQRNASYPHCLQFYLQPPSENISLIEFENLAIDRVKLLKSVENLGVSYVKGTEQYQSKLESELRKLKFSYRENLEDEYEPRRRDHISHFILRLAYCQSEELRRWFIQQEMDLLRFRFSILPKDKIQDFLKDSQLQFEAISDEEKTLREQEIVASSPSLSGLKLGFESIYKIPFADALDLFRGRKVYLEDGFAYVPLKDIVAIILNEFRAKLSKALALTARSLPAVQSDERLQPLLNHLSHSYTGQDYSTQGNVGKISLDQIDLLSTKSFPPCMRQLHKALRENHHLRHGGRMQYGLFLKGIGLTLEQALQFWKQEFIKGKMDPDKFDKGYSYNIRHSFGKEGKRTDYTPFSCLKIILSNPPSQGDYHGCPFRHSDPELLKQKLQSYKISPGGISQILDLVKGTHYQVACQKYFEMIHNVDDCGFSLNHPNQFFCESQRILNGGKDIKKEPIQPETPQPKPSVQKTKDASSALASLNSSLEMDMEGLEDYFSEDS | binds | binds | binding [6]: binds
